Data: PubChem BioAssay AID2685 (National Center for Advancing Translational Sciences (NCATS), 2010)
Hit rate of the full screen: of about 320,000 compounds, about 2,100 (0.66%) were called active. This list was built around the results that the source calls inconclusive (neither active nor inactive); the mix of calls is not that of the screen. The call rests on the fitted dose curve; in most records, active means well fitted inhibition curve with a large enough effect in the signal ratio, with a control signal flat (not every such curve was filed as active); inconclusive means small, poorly fitted or top-dose-only effect, or effect the other way, or a change in a side signal; inactive means flat fitted curve, though single readings scatter; the % refers to the signal ratio. Potencies of inconclusive entries are doubtful fits and often do not repeat.

Test: qHTS Assay for Lipid Storage Modulators in Drosophila S3 Cells
Conditions: BODIPY lipid droplet fluorescence, 18-24 h, cells fed with added oleic acid; lipid storage change, negative = inhibition: at 46.1 µM (top of the series) unless noted
In short: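 Drosophila S3 cells loaded with oleic acid (400 uM, as added) and compounds at several concentrations; lipid droplets imaged by 488-nm laser-scanning cytometry, 500–530 nm intensity and object ratio to cell channel. Percent activity normalized to 20 uM Triacsin C.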
On the % scale 0 is the no-effect control and ±100 the full control effect; potency means the concentration at half of the fitted maximal effect.

SMILES	lipid storage change, negative = inhibition	Potency
Cc1ccc(/C=C/c2onc(C)c2S(=O)(=O)N2CCC(C(=O)N3CCN(C)CC3)CC2)cc1	inconclusive: 33.1%	
CC(C)c1ccc(NS(=O)(=O)c2cn(C)c(=O)n(C)c2=O)cc1	inconclusive: -1.13%	
CC(C)NCCCOc1ccc(Cl)cc1Br	inconclusive: 38.3%	
Cc1noc(C)c1CSCC(=O)N1CCN(c2ccc(F)cc2)CC1	inconclusive: 48.4%	
N#CCCn1cc(C(=O)O)c(-c2ccc3ccccc3c2)n1		inconclusive: 20.6 µM [activator, partial curve]
O=C(NCc1ccccc1Cl)C1CCCN1C(=O)NC1CCCCC1 (stereo not drawn)	inconclusive: 22.4%	
COc1ccc(CCNC(=O)C2CCCN(S(=O)(=O)c3ccc(OC)cc3)C2)cc1 (stereo not drawn)	inconclusive: 40.6%	
CCOC(=O)c1sc2cc([N+](=O)[O-])cc(SCCO)c2c1N		inconclusive: 16.4 µM [falling, single point]
O=C(Nc1ccc(Oc2ccc(NC(=O)Nc3ccccc3Cl)cc2)cc1)Nc1ccccc1Cl		inconclusive: 1.16 µM [falling, full curve, poor fit]
COc1ccc(S(=O)(=O)N(C)CC(=O)NCc2ccccc2)cc1OC	inconclusive: 75.4%	
Cc1cc(OCCCC(=O)NCCc2ccccn2)ccc1Cl		inconclusive: 29.1 µM [activator, single point]
CN(CCN1CCc2ccccc2C1)Cc1nc(Cc2ccccc2F)no1	inconclusive: 20.3%	
COc1ccc(CN2CCN(C(C)C(=O)N3CCc4ccccc43)CC2)cc1OC (stereo not drawn)	inconclusive: -26%	
COc1ccc(C(CNC(=O)C(C)Oc2ccc(Br)cc2)N2CCCCC2)cc1 (stereo not drawn)		inconclusive: 29.1 µM [falling, single point]
CCOC(=O)c1ccc(NS(=O)(=O)c2ccc(-c3coc(C)n3)cc2)cc1	inconclusive: 31.1%	
CCOc1ccc(C(C)NC(=O)Nc2ccccc2C(=O)OC)cc1 (stereo not drawn)		inconclusive: 2.31 µM [activator, partial curve]
CC(C)(CO)NS(=O)(=O)c1ccc2c(c1)Cc1cc(S(=O)(=O)NC(C)(C)CO)ccc1-2		inconclusive: 16.4 µM [falling, single point]
COC(=O)c1ccc2nc(NC(=O)C3CC3)sc2c1		inconclusive: 7.31 µM [falling, full curve, poor fit]
CN=C1c2cc3c(Br)c(OC)ccc3n2CCN1C		inconclusive: 5.8 µM [falling, single point]
CCN1CCN(CCCN(Cc2ccco2)C(=S)Nc2ccc(C)c(Cl)c2)CC1		inconclusive: 6.51 µM [rising, single point]
CC12COC3(C(=O)Nc4ccccc4F)CC1CCC32C (stereo not drawn)	inactive	
NC(=O)CCN(C1CCCCC1)S(=O)(=O)c1cccc2nsnc12	inconclusive: -9.29%	
Cc1ccc(NC(=O)CCN2C(=O)OC(C)(C)C2(C)O)cc1 (stereo not drawn)		inconclusive: 29.1 µM [falling, partial curve, poor fit]
O=C(COC(=O)COc1cccc(C(F)(F)F)c1)Nc1ccc(N2CCOCC2)cc1		inconclusive: 6.51 µM [activator, single point]
COc1ccc(/C=N/NS(=O)(=O)c2ccccc2)cc1OS(=O)(=O)c1ccccc1		inconclusive: 8.2 µM [activator, partial curve]

Entries listed so far with two or more sulfur atoms (four):
SMILES	lipid storage change, negative = inhibition	Potency
CCOC(=O)c1sc2cc([N+](=O)[O-])cc(SCCO)c2c1N		inconclusive: 16.4 µM [falling, single point]
CC(C)(CO)NS(=O)(=O)c1ccc2c(c1)Cc1cc(S(=O)(=O)NC(C)(C)CO)ccc1-2		inconclusive: 16.4 µM [falling, single point]
NC(=O)CCN(C1CCCCC1)S(=O)(=O)c1cccc2nsnc12	inconclusive: -9.29%	
COc1ccc(/C=N/NS(=O)(=O)c2ccccc2)cc1OS(=O)(=O)c1ccccc1		inconclusive: 8.2 µM [activator, partial curve]

(list continues)

SMILES	lipid storage change, negative = inhibition	Potency
CC(Nc1nc(-c2cccnc2)nc2ccccc12)c1ccc(F)cc1 (stereo not drawn)		inconclusive: 23.1 µM [falling, single point]
COc1ccc(CN2CCN(CC(O)Cn3c4ccccc4c4ccccc43)CC2)cc1 (stereo not drawn)	inconclusive: -14.7%	
CCN(CC)C(=O)CSc1n[nH]c(=O)n1CCc1ccccc1		inconclusive: 0.92 µM [activator, full curve]
COc1cccc(NC(=O)CCN2CCN(C)CC2)c1		inconclusive: 2.91 µM [falling, single point]
COc1ccc(OC)c(N2C(=O)C(Cl)=C(N3CCOCC3)C2=O)c1		inconclusive: 29.1 µM [falling, single point]
COC(=O)Cc1c(O)ccn(Cc2cccc(C(F)(F)F)c2)c1=O	inconclusive: -21.6%	
CCOC(=O)c1cccc(NC(=O)c2ccc(NC(=O)C3CCCO3)cc2)c1 (stereo not drawn)		active: 14.6 µM
CCNC(=O)COC(=O)c1sccc1C	inconclusive: 3.9%	
COCC(C)n1c(COc2ccccc2F)nnc1SCC(=O)Nc1oc(C)c2c(C)n[nH]c(=O)c12 (stereo not drawn)		inconclusive: 1.3 µM [activator, partial curve]
CN(c1ccc(Br)cc1)S(=O)(=O)c1ccc2[nH]cc(C(=O)NCCN3CCOCC3)c(=O)c2c1		inconclusive: 0.184 µM [falling, full curve, poor fit]
Cc1ccc2nc3c(cc(C#N)c(=O)n3CCN3CCOCC3)c(=O)n2c1		inconclusive: 0.0291 µM [activator, full curve, poor fit]
COc1ccccc1NC(=O)NC1CCCc2ccccc21 (stereo not drawn)	inconclusive: 16.8%	
C=CCNC(=O)c1ccc(-n2cccc2)cc1	inconclusive: -5.61%	
COc1cc(CN2CCC(Oc3cc(C(=O)NC4CC4)ccc3OC)CC2)cc(OC)c1	inconclusive: 238%	
Nc1c(Cl)c(Cl)nc(C(=O)OCC(=O)NC2CCCCC2)c1Cl		active: 9.2 µM
COC(=O)c1cc(NC(=O)CN2CCOCC2)cc(C(=O)OC)c1	inconclusive: 16.8%	
c1ccc(CN2CCN(c3nc4ccccc4s3)CC2)cc1	inconclusive: 20.3%	
Cc1cccc(C)c1NC(=O)CSc1nnc(Cn2nnc(-c3ccccc3)n2)n1-c1ccccc1	inconclusive: 17.8%	
Clc1ccc(-c2nnc3sc(-c4ccc(Br)o4)nn23)c(Cl)c1	inconclusive: -5.42%	
O=C(NCc1ccco1)c1ccc(OCC2CCCO2)cc1 (stereo not drawn)	inconclusive: 48.5%	
CSc1ccc(C=O)cc1	inconclusive: 13%	
COc1ccccc1CSc1ncc(-c2ccc([N+](=O)[O-])cc2)[nH]1		inconclusive: 4.11 µM [rising, partial curve, poor fit]
CCCCNC(=S)N(C)/N=C/c1ccc(OCC(=O)Nc2ccc(OC)cc2)c(OC)c1	inconclusive: -50.7%	
COc1ccccc1NC(=O)C/C(C)=N/NC(=O)c1ccccn1		inconclusive: 5.8 µM [activator, single point]
CC1=Nc2cc(Cl)ccc2Oc2ccccc21		inconclusive: 20.6 µM [falling, partial curve]

SMILES	lipid storage change, negative = inhibition	Potency
c1ccc(Cn2nnc3c(NCc4ccc5c(c4)OCO5)ncnc32)cc1	inconclusive: 3.4%	
O=[N+]([O-])c1ccc(O)c(C=Nc2cccc3ccccc23)c1		inconclusive: 16.4 µM [activator, partial curve, poor fit]
CC1CCN(S(=O)(=O)c2ccc(NC(=O)Cc3ccc(S(=O)(=O)N4CCOCC4)s3)cc2)CC1		inconclusive: 1.84 µM [falling, partial curve, poor fit]
CC1(C(=O)NC2CCCCC2)CCC(=O)N1Cc1cccnc1 (stereo not drawn)	inconclusive: 17.1%	
CC1(C)Cc2c(sc3nn[nH]c(=O)c23)CO1	inconclusive: -19.5%	
O=C(NCC1CCCO1)C(c1ccccn1)N(Cc1ccccc1Cl)C(=O)CN1C(=O)c2ccccc2S1(=O)=O (stereo not drawn)	inconclusive: 6.87%	
CC(C)(C)C1CCc2onc(C(=O)Nc3ccc(F)cc3F)c2C1 (stereo not drawn)	inconclusive: 125%	
CCOC(=O)c1cc(S(=O)(=O)N2CCCC2)cn1C		inconclusive: 6.51 µM [falling, single point]
Cc1cccc(C(C)C)c1NC(=O)COC(=O)CCN1C(=O)C2CC=CCC2C1=O (stereo not drawn)	inconclusive: -22.1%	
O=C(NC(=S)Nc1ccc(S(=O)(=O)Nc2nccs2)cc1)c1cccnc1	inconclusive: 19.1%	
Oc1ccc(Br)cc1-c1cc(-c2ccccc2)n[nH]1		inconclusive: 29.1 µM [cytotoxic, single point]
CCC1CCCCN1CCCNC(=O)c1cn(C)c2ccc(S(=O)(=O)N(C)C3CCCCC3)cc2c1=O (stereo not drawn)	inconclusive: -9.19%	
CCOc1ccc2nc(NS(=O)(=O)c3cccs3)sc2c1		inconclusive: 29.1 µM [activator, single point]
CCOC(=O)c1cc(-c2ccccc2)n(CC(=O)Nc2cccc(OC)c2)c1C	inconclusive: -13.1%	
COc1cccc(NC(=O)Nc2ccc(CC(=O)O)cc2)c1	inconclusive: -10.6%	
O=C(CCCOc1ccccc1)Nc1nnc(C2CCCO2)s1 (stereo not drawn)	inconclusive: 15.8%	
Cc1ccc(/C=N/NC(=O)c2ccc(NC(=O)c3ccc(Cl)cc3)cc2)o1		inconclusive: 0.82 µM [activator, full curve, poor fit]
CC(=O)Nc1ccccc1C(=O)C(=O)Nc1ccc(C(=O)N2CCOCC2)cc1	inconclusive: -45.5%	
O=C(Cn1c(=O)oc2ccccc21)Nc1n[nH]c(=S)s1	inconclusive: 42.1%	
Nc1nc2n(n1)C(c1ccccc1)CC(c1ccc(F)cc1)N2 (stereo not drawn)	inconclusive: -9.43% [at 9.22 µM]	
CCOC(=O)N1CCN(C(=O)c2oc3ccc(S(=O)(=O)N4CCOCC4)cc3c2C)CC1	inconclusive: -88.1%	
CCOC(=O)C(C)N1C(=O)S/C(=C\c2ccc(-c3ccccc3C(=O)O)o2)C1=O (stereo not drawn)		inconclusive: 16.4 µM [falling, partial curve, poor fit]
COc1ccc(C(=O)NNC(=O)C(=O)Nc2ccc(C)cc2)cc1		inconclusive: 0.58 µM [falling, single point]
